The list shows a part of the results. The main result of the screen is listed elsewhere. These columns were measured beside it and carry no call. Compounds called inactive in the main read-out are mostly missing here. The note in brackets gives the kind of curve behind each potency; many fits are weak.
Assay: qHTS Assay to Find Inhibitors of Chronic Active B-Cell Receptor Signaling
Conditions: ABC-DLBCL IkBa-CBG/CBR reporter, luminescence ratio (green luciferase fused to IkBa over red control in TMD8 lymphoma cells), 4 h
Procedure, shortened: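 TMD8 ABC-DLBCL cells carrying doxycycline-inducible green luciferase fused to IkappaBalpha plus unfused red luciferase were exposed to compounds (up to 46 uM) for 4 hrs at 37C. Activity came from the overlap-corrected green/red luminescence ratio.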

[1] = measured here: CBR red luminescence, cell number
[2] = measured here: IkBa-CBG green luminescence

SMILES | AC50 [1] | AC50 [2]
CCCCCCC(=O)Nc1ccc(Br)cn1 | 2 µM [rising, full curve, poor fit] | –
Cc1cc(-n2c(C)cc(C(=O)CSc3ncnc4ccccc34)c2C)no1 | 35.5 µM [falling, single point] | –
COc1ccc(Br)cc1-c1noc(-c2ccccc2)n1 | 29.1 µM [falling, single point] | 32.6 µM [rising, partial curve, poor fit]
CCN(CCNC(=O)C1CCN(Cc2nc(-c3cccc(Cl)c3)oc2C)CC1)c1ccccc1 | 35.5 µM [falling, single point] | –
O=C(CSc1ncccc1-c1nc2ccccc2[nH]1)N1CCCCC1 | 1.12 µM [falling, full curve, poor fit] | –
CCSS(=O)(=O)c1cccc2cccnc12 | – | 20 µM [falling, partial curve, poor fit]
O=C(N/C=C/c1ccco1)OCc1ccccc1 | 0.1 µM [rising, full curve, poor fit] | –
CCCSc1nnc2[nH]c(=O)cc(C)n12 | 2.24 µM [rising, full curve, poor fit] | –
CCCCCCCCNC(=O)c1cnsn1 | 0.164 µM [rising, full curve, poor fit] | –
C(=N\Nc1ncnc2ccccc12)/c1ccccc1 | 10 µM [falling, partial curve] | –
COc1c([N+](=O)[O-])c(=O)oc2ccccc12 | 29.1 µM [falling, single point] | –
CCOC(=O)c1ccc(N=c2sc(C(=O)OC)cc(=O)n2Cc2ccco2)cc1 | 6.51 µM [falling, full curve] | –
O=C1c2ccccc2C(=O)N1CCCc1nc2ccccc2c(=O)n1CCCn1ccnc1 | 35.5 µM [rising, single point] | –
O=C(CSc1nnc(-c2cccs2)n1-c1ccccc1)N1CCOCC1 | 0.0731 µM [rising, full curve, poor fit] | –
CC(=O)N1C(=O)c2cccc3cccc(c23)C(=O)N1C(C)=O | 4.61 µM [rising, full curve, poor fit] | –
C=CCCCCCCCCC(=O)Nc1ncccn1 | 3.55 µM [rising, partial curve, poor fit] | –
COc1ccc(C(CNC(=O)CN(C)S(=O)(=O)c2ccc(C)cc2)N2CCCC2)cc1 (stereo not given) | 0.146 µM [rising, full curve, poor fit] | –
O=C(c1cnc2n(c1=O)CCS2)N1CCN(c2ccccc2F)CC1 | 6.51 µM [rising, full curve, poor fit] | –
O=C(COC(=O)c1ccc(O)cc1O)N=c1sccn1Cc1ccccc1Cl | 29.1 µM [falling, single point] | –
O=C(N/N=C/c1cn(-c2cccs2)nc1-c1ccccc1)c1ccccc1Br | 7.31 µM [falling, partial curve, poor fit] | 23.1 µM [rising, partial curve, poor fit]
CC1CCc2c(C(=O)Nc3ccc(OC(F)(F)F)cc3)csc2C1 (stereo not given) | 2.59 µM [rising, full curve] | –
CSc1nnc(-c2ccccc2N=Cc2c(C)[nH]n(-c3ccc4ccccc4c3)c2=O)c(=O)[nH]1 | 2.82 µM [falling, full curve, poor fit] | –

SMILES | AC50 [1] | AC50 [2]
CCCCN(CC)Cc1ccc(CNC(=S)Nc2c(C)cc(C)cc2C)o1 | 6.31 µM [falling, full curve] | –
O=C(O)C1CC=CCC1C(=O)NC12CC3CC(CC(C3)C1)C2 (stereo not given) | 29.1 µM [falling, single point] | –
O=[N+]([O-])c1ccc(NCCCNS(=O)(=O)c2ccc(Cl)cc2)c(Cl)c1 | 10 µM [falling, partial curve] | –
O=C(O)c1ccc2cccnc2c1O | 0.708 µM [falling, full curve] | –
O=C(NC1CCCC1)c1cc(-c2ccc(Cl)cc2)on1 | 4.47 µM [falling, full curve, poor fit] | –
CCn1cnc2c(Nc3cccc(Cl)c3)nc(C#N)nc21 | 25.9 µM [rising, single point] | –
COc1ccc(OC(=O)Cc2cccc3ccccc23)cc1 | 12.6 µM [rising, partial curve] | –
O=C(N/N=C/c1ccc([N+](=O)[O-])o1)C1CCCC1 | 4.47 µM [falling, partial curve, poor fit] | –
O=C(O)CCCCCN1C(=O)/C(=C/c2ccncc2)SC1=S | 0.146 µM [falling, full curve] | –
O=C(CSc1nc(O)c(Cc2ccccc2)c(=O)[nH]1)Nc1ccccc1 | 0.82 µM [falling, full curve, poor fit] | –
COc1ccc(Cl)cc1NC(=O)CNc1ccc(F)cc1C | 18.4 µM [falling, partial curve] | –
O=C(Nc1cccc(C(F)(F)F)c1)c1cc(-c2ccc(F)cc2)on1 | 32.6 µM [falling, single point] | –
CC1CCCCN1C(=O)C1CCN(c2nc(-c3ccccc3)nc3c2CCC3)CC1 (stereo not given) | 11.2 µM [falling, partial curve, poor fit] | –
Cc1ccccc1NC(=S)NNC(=O)c1ccncc1 | 22.4 µM [falling, partial curve, poor fit] | –
Cc1ccc2oc(=O)c(/C=C(\O)c3ccccc3)nc2c1 | 1.12 µM [falling, full curve, poor fit] | –
O=C(NC(=S)Nc1nc2ccc(F)cc2s1)c1ccco1 | 2.24 µM [falling, full curve, poor fit] | –
CCC(O)c1cc2c(cc1NC(=O)c1cccs1)OCCO2 (stereo not given) | 0.411 µM [rising, partial curve, poor fit] | –
CC(OC(=O)c1ccc2ncsc2c1)C(=O)Nc1ncc(Cl)cc1Cl (stereo not given) | 0.326 µM [falling, full curve, poor fit] | –
Cc1cc(C)c2oc(C(=O)N3CCN(C)CC3)cc(=O)c2c1 | 14.1 µM [rising, single point] | –
Cc1cc(Br)c(NC(=O)CCl)c(Br)c1 | 20.6 µM [falling, single point] | –
Oc1ccc(/C=N/NC(=S)Nc2cccnc2)cc1 | 10 µM [falling, partial curve, poor fit] | –
Nc1nc2ccccc2n1C(=O)c1ccccc1 | 1.41 µM [falling, full curve] | –

SMILES | AC50 [1] | AC50 [2]
CC(C)(C)c1cc(=O)n(-c2ccccc2)[nH]1 | 23.1 µM [falling, single point] | –
O=C(Nc1ccc2c(c1)OCO2)c1noc2c1CCCC2 | 8.91 µM [falling, partial curve, poor fit] | –
CC(C)Cn1c(=O)c2ccccc2n2c(SCC(=O)N3c4ccccc4CC3C)nnc12 (stereo not given) | 18.4 µM [rising, single point] | –
CCn1cc(C(=O)NCCCN2CCCC(C)C2)c(=O)c2cc(S(=O)(=O)N(C)C3CCCCC3)ccc21 (stereo not given) | 35.5 µM [rising, single point] | –
CCOC(=O)/C(C(N)=NCC(C)C)=C(/O)c1ccccc1 | 6.31 µM [rising, single point] | –
Fc1ccc(N2CCN(C3=Nc4cccc5cccc3c45)CC2)cc1 | 6.31 µM [rising, single point] | –
COc1ccc(-c2cn[nH]c2C)cc1 | 11.2 µM [falling, single point] | –
CC1=NN(C(N)=S)C(=O)C1N=Nc1cccc(Cl)c1C (stereo not given) | 0.501 µM [rising, full curve] | –
C=CCn1c(SCC(=O)c2ccc(O)c(O)c2)nnc1-c1cccnc1 | 15.8 µM [falling, partial curve, poor fit] | –
CC(=O)C(Sc1nn(C)c(=S)s1)C(=O)Nc1ccccc1 (stereo not given) | 35.5 µM [falling, single point] | –
O=c1oc(CCO)cc2ccc(C#Cc3ccsc3)cc12 | 2.59 µM [rising, full curve] | –
COc1cc(SC)ccc1C(=O)Nc1ccccc1C#N | 14.6 µM [rising, partial curve, poor fit] | –
CC1CCCN(C(=O)C2CCN(c3ncnc4c3nc3n4CCCCC3)CC2)C1 (stereo not given) | 17.8 µM [rising, partial curve, poor fit] | –
CCNC(=O)CCn1nc(-c2ccc(C)cc2)c2ccccc2c1=O | 2.82 µM [falling, full curve, poor fit] | –
C1CCN(CCCNC2C3CC4CC(C3)CC2C4)C1 (stereo not given) | 29.1 µM [falling, single point] | –
COc1ccc(-c2nn(C)c(=O)c3ccccc23)cc1NS(C)(=O)=O | 10 µM [rising, partial curve, poor fit] | 12.6 µM [falling, single point]
CSc1nc2nc3c(cc2c(=O)n1-c1cccc(C)c1)COC(C)(C)C3 | 5.62 µM [falling, single point] | –
Cc1ccc(S(=O)(=O)N2CCC(C(=O)N3CCC[C@H]3C(=O)NC3CCS(=O)(=O)C3)CC2)cc1 (stereo not given in full) | 29.1 µM [rising, single point] | –
O=C(Cn1ncc2c3ccccc3n(Cc3ccccc3)c2c1=O)N1CCN(c2ncccn2)CC1 | 3.26 µM [falling, single point] | –
Cc1ccc(S(=O)(=O)CCC(=O)OCc2ccccc2)cc1 | 0.631 µM [rising, partial curve, poor fit] | –
O=C(Cc1ccc(N2CCNC2=O)cc1)N1CCCC(Nc2cccc(F)c2)C1 (stereo not given) | 31.6 µM [rising, single point] | 15.8 µM [falling, single point]
Cc1ccc(C)c(C(=O)Nc2c(C(N)=O)oc3ccccc23)c1 | – | 0.651 µM [rising, full curve, poor fit]

For reference, some entries already given.
SMILES | AC50 [1] | AC50 [2]
Cc1ccc(S(=O)(=O)N2CCC(C(=O)N3CCC[C@H]3C(=O)NC3CCS(=O)(=O)C3)CC2)cc1 (stereo not given in full) | 29.1 µM [rising, single point] | –
O=C(Cn1ncc2c3ccccc3n(Cc3ccccc3)c2c1=O)N1CCN(c2ncccn2)CC1 | 3.26 µM [falling, single point] | –
Cc1ccc(S(=O)(=O)CCC(=O)OCc2ccccc2)cc1 | 0.631 µM [rising, partial curve, poor fit] | –

From PubChem BioAssay AID493014 (National Center for Advancing Translational Sciences (NCATS), 2011)
